Experimental data: US20150166679A1
Results are given in words; binding and its absence hold for the method and conditions named. Some binding calls cover weakened binding; strength is not graded here.

Chains of the proteins cited; added tags and fusions are not shown. Lines headed by an entry give the natural chain unless they say otherwise; changes in a name come on top. Residues count along the entry.
UniProt Q9NNX6, residues 62-404: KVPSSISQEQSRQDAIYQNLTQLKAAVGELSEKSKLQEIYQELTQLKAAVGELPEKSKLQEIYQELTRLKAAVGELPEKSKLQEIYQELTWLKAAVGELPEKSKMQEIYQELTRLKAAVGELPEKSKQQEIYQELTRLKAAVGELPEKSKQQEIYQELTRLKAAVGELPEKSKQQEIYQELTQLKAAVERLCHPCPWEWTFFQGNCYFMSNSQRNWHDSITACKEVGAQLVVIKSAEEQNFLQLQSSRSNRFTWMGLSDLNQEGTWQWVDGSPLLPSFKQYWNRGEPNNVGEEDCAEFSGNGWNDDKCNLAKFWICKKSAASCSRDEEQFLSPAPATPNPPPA
UniProt P01833: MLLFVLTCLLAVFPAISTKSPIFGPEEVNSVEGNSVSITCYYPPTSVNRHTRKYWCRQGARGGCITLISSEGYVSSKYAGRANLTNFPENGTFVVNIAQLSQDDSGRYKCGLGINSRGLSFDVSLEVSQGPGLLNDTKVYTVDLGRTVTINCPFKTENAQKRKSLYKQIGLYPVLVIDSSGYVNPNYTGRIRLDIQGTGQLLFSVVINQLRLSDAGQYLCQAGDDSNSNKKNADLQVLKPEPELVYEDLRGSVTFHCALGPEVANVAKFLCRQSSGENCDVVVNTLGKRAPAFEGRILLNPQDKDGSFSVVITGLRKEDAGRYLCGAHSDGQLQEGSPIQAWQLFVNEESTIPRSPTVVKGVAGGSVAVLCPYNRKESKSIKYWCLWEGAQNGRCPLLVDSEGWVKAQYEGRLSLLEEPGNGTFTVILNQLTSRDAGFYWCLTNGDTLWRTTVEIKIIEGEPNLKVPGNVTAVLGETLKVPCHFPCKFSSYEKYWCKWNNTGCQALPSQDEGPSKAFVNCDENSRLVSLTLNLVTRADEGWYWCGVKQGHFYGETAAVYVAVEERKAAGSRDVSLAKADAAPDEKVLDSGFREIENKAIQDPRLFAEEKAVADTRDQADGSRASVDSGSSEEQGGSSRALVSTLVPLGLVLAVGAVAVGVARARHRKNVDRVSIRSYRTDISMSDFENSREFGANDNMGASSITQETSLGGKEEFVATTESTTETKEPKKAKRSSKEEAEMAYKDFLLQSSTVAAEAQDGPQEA

Key:
[1] = target: DC-SIGN-Fc fusion protein (R&D Systems, no. 161-DC-050) (human) (UniProt Q9NNX6); assay: ELISA, DC-SIGN-Fc coated, SC serially diluted from 1 microgram per ml, anti-human SC-HRP detection; weaker than SC from CHO LEC11 after desialylation
[2] = target: DC-SIGN-Fc fusion protein (R&D Systems, no. 161-DC-050) (human) (UniProt Q9NNX6); assay: ELISA, DC-SIGN-Fc coated, SC serially diluted from 1 microgram per ml, anti-human SC-HRP detection; weaker than the same SC after desialylation

Substance: desialylated recombinant human secretory component produced in CHO DUK- (from UniProt P01833 19-607) (receptor)
- binding [1]: binds

Substance: sialylated recombinant human Secretory Component expressed in CHO LEC11 (from UniProt P01833 19-607) (receptor)
- binding [2]: binds
